Experimental data: article doi:10.1101/2022.10.20.512913
Read-outs that look alike come from different tables or passages of the source. No constants are given. Whether binding was seen depends on the method and setting. Binding seen in cells or lysates may run through a third protein. For some of these results: Binding calls can cover weak binding; strength is not graded here. For some of these results: Sequences can lack the tags named with a protein.

By UniProt entry, the sequences of proteins in these tests, tags left out.
UniProt Q8VZQ4: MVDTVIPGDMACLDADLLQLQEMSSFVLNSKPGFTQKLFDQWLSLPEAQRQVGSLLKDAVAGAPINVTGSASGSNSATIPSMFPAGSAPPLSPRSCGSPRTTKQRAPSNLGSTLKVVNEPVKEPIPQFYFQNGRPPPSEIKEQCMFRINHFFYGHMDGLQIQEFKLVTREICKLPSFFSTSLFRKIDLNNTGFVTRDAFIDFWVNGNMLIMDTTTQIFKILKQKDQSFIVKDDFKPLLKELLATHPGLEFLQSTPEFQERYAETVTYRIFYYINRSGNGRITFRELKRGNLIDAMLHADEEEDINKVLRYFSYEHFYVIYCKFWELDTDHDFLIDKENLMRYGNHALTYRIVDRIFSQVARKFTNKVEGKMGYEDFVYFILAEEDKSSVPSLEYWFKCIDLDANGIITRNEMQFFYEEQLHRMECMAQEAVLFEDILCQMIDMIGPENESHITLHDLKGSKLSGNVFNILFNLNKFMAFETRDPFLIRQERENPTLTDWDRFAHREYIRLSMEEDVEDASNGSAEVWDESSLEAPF

What was measured:
Assay in all cases: co-IP
[1] = target: T1, FLOT2-GFP (Arabidopsis) (UniProt Q4V3D6)
T1 sequence: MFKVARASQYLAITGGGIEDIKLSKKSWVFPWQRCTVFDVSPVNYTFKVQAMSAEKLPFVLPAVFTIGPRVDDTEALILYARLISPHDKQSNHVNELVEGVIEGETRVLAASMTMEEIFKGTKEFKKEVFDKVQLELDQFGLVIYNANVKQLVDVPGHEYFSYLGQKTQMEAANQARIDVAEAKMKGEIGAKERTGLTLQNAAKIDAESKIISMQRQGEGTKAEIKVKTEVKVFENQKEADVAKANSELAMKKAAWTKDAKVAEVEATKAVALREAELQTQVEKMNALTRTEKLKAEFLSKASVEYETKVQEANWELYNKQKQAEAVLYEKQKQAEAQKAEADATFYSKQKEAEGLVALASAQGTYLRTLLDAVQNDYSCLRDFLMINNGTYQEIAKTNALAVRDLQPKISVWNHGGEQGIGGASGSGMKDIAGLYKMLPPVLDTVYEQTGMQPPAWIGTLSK

[2] = target: T2, GFP-PIP2;7 (Arabidopsis) (UniProt P93004)
T2 sequence: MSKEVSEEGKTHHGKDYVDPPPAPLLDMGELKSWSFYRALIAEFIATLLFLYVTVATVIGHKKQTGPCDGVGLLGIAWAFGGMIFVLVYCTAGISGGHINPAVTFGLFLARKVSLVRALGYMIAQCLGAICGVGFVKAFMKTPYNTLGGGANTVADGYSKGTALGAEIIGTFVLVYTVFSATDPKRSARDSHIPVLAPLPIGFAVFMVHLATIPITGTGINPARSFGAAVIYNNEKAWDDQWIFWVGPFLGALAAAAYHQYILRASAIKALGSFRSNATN

[3] = target: T2, GFP-PIP2;7 (Arabidopsis); remark: listed apart in the source
[4] = target: PP2A-B’’γ-YFP (Arabidopsis) (UniProt Q8VZQ4)

**Q.** With CWLP-HA (from UniProt Q9LIE9) as the substance, how does the binding [1] read?
**A.** Its binding is “no binding”.

**Q.** And the binding [2]?
**A.** Its binding is “binds”.

**Q.** What about the binding [3] of the same substance?
**A.** The binding was “binds”.

**Q.** What about the binding [4] of the same substance?
**A.** Its binding is “binds”.
